Results from patent publication US8293494.
Results are given in words; binding and its absence hold for the method and conditions named. For some of these results: In cells and extracts the contact can be indirect. Some binding calls cover weakened binding; strength is not graded here. For some of these results: Sequences can lack the tags named with a protein. Values belong to the binder of their own block, whether it stands above or below them.

Assays:
MBP-JMJD2C, Q9H3R0 = molecular target: T1, MBP-JMJD2C, Q9H3R0; experiment: MBP pull-down with labelled full-length AR; conditions: remark: other sources report otherwise
T1 chain: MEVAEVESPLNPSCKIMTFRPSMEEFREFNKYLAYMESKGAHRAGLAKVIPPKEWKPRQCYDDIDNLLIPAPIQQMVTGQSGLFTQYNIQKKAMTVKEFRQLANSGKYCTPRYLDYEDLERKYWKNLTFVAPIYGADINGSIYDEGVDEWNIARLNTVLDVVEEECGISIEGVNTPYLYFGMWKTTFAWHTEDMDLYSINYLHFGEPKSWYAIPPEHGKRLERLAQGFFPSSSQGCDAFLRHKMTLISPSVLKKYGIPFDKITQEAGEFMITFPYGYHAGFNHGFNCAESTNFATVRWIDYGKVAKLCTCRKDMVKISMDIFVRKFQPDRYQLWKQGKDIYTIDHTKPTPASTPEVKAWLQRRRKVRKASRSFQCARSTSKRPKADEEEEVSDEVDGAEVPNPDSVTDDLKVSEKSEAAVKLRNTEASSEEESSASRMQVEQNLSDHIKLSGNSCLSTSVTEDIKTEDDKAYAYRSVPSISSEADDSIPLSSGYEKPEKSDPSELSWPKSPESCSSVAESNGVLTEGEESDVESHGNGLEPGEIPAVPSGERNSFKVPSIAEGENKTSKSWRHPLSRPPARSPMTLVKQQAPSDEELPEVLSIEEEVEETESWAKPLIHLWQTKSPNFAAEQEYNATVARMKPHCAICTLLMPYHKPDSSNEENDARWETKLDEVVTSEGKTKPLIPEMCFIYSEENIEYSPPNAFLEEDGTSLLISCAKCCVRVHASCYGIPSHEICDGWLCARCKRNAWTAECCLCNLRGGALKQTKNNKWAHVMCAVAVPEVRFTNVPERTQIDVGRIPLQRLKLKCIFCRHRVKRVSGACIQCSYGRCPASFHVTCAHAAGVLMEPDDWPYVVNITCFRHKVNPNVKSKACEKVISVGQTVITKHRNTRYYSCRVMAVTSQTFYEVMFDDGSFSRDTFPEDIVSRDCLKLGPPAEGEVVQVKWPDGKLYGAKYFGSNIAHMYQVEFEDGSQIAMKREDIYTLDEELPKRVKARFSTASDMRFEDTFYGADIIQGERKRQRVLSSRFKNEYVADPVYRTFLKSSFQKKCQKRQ

Flag-AR, P10275 [1] = molecular target: T2, Flag-AR, P10275; experiment: co-immunoprecipitation with α-Flag from transfected 293 cells, Western blot with α-V5; conditions: remark: other sources report otherwise
T2 chain: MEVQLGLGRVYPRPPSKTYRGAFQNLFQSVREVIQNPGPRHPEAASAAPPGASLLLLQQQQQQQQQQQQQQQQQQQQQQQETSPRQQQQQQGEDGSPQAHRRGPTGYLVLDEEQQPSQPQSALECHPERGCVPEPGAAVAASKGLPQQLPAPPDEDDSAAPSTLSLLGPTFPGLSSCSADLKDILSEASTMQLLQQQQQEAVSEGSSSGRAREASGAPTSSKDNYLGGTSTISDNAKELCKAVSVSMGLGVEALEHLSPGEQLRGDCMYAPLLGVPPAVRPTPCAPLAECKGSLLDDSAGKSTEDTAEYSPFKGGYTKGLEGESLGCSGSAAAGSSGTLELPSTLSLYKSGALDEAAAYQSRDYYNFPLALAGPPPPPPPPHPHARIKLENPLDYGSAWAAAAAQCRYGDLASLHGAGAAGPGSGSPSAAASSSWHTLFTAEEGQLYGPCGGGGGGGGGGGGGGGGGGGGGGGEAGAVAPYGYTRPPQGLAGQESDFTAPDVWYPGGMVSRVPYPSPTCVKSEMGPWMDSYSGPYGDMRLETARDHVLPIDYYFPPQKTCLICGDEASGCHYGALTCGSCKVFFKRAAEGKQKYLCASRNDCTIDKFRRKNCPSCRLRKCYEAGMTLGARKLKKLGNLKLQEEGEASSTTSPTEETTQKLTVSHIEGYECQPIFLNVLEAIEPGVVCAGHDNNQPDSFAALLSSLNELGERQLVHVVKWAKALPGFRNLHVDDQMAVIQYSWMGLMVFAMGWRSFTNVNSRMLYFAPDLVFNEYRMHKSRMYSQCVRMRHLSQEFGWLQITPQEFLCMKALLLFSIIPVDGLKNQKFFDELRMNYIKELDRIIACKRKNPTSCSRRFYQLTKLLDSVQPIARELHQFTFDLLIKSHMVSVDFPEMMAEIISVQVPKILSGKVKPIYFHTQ

Flag-AR, P10275 [2] = molecular target: T2, Flag-AR, P10275; experiment: TAP purification, TEV release, then α-Flag immunoprecipitation from transfected 293 cells; conditions: remark: other sources report otherwise
[3] = molecular target: T3, androgen receptor (endogenous, ligand-bound, LNCaP cells) (human), P10275; experiment: Re-ChIP (α-AR, then α-JMJD2C) in R1881-treated LNCaP cells; conditions: remark: other sources report otherwise
T3 chain: T2 chain

GST-AR-DBD [4] = molecular target: GST-AR-DBD (UniProt P10275); experiment: GST pull-down with labelled JMJD2C
GST-AR-LBD [5] = molecular target: GST-AR-LBD (UniProt P10275); experiment: GST pull-down with labelled JMJD2C
GST-AR-NTD [6] = molecular target: GST-AR-NTD (UniProt P10275); experiment: GST pull-down with labelled JMJD2C
GST-AR-DBD [7] = molecular target: GST-AR-DBD (UniProt P10275); experiment: GST pull-down of purified proteins, Western blot with α-JMJD2C
GST-AR-LBD [8] = molecular target: GST-AR-LBD (UniProt P10275); experiment: as above
GST-AR-NTD [9] = molecular target: GST-AR-NTD (UniProt P10275); experiment: as above

B1: labelled full-length AR (ARwt), P10275 1-920 (receptor, UniProt P10275 1-920, looked up)
chain: T2 chain
binding (MBP-JMJD2C, Q9H3R0): binds

B3: JMJD2C (endogenous, LNCaP cells), Q9H3R0 1-1056 (enzyme, human, UniProt Q9H3R0 1-1056, looked up)
chain: T1 chain
binding [3]: binds

B4: labelled full-length JMJD2C (in vitro translated) (enzyme, UniProt Q9H3R0 1-1056, looked up)
chain: T1 chain
binding (GST-AR-DBD [4]): binds | binding (GST-AR-LBD [5]): binds | binding (GST-AR-NTD [6]): binds

More lines, now with the values ahead:

binding (Flag-AR, P10275 [1]): binds | binding (Flag-AR, P10275 [2]): binds
B2: V5-JMJD2C, Q9H3R0 1-1056 (enzyme, UniProt Q9H3R0 1-1056, looked up, not shown: small tags and cut ends)
chain: T1 chain

binding (GST-AR-DBD [7]): binds | binding (GST-AR-LBD [8]): binds | binding (GST-AR-NTD [9]): binds
B5: MBP-JMJD2C (enzyme, UniProt Q9H3R0 1-1056, looked up, not shown: large carriers)
chain: T1 chain
